According to patent publication US10925855B2, “Compositions comprising water dispersible nanoparticles of a retinoid compound” (GALDERMA RESEARCH & DEVELOPMENT, priority 2015, dated 2021):
This continues a long series; more values of the same kind are listed elsewhere.

Experiment: Stabilizer screening (colloid stability after precipitation)
Assay type: physicochemical
Conditions: Compound A 1.0 mg, 1 mL EtOH
Protocol: If the colloid solution was stable over 2 hours (no aggregation, sedimentation, crystal forming), and no aggregation occurred, the sample was lyophilized. • If precipitation occurred, however the colloid solution was not stable over the whole solid formulation procedure, other stabilizers were tested. Results

Measured: Observation

CC(C)(C)c1cc(-c2cc(-c3ccc(C(=O)O)cc3)ccc2OCCO)ccc1N1CCCC1 [Compound A, 3″-tert-butyl-4′-(2-hydroxyethoxy)-4″-pyrrolidin-1-yl[1,1′;3′,1″]-terphenyl-4-carboxylic acid]
Aggregated immediately: 2 mg PEOX50, 7 mL 0.05 mg/mL BAC solution | 2 mg PEOX50, 7 mL 0.05 mg/mL DSS solution | 2 mg PEOX50, 7 mL 0.05 mg/mL Mannitol solution | 2 mg PEOX50, 7 mL 0.05 mg/mL NaOAc solution | 2 mg PEOX50, 7 mL 0.05 mg/mL SDS solution | 2 mg PEOX50, 7 mL 0.05 mg/mL citric acid solution | 2 mg PEOX50, 7 mL 0.5 mg/mL BAC solution | 2 mg PEOX50, 7 mL 0.5 mg/mL Mannitol solution | 2 mg PVP10, 7 mL 0.5 mg/mL citric acid solution
